Source: patent US10064952B2 (Genzyme Corporation, priority 2014, dated 2018)

Experiment: peptide synthesis
Settings: late stage modification step; for final HPLC purity: reversed-phase HPLC

| Substance | step yield [%] | final HPLC purity [%] |
| --- | --- | --- |
| Aminooxy-Cys-MC-VC-PABC-MMAE | 62 | >96 |
| Aminooxy-Cys-MC-VC-PABC-PEG8-Do110 | 46 | >96 |
